Results are given in words; binding and its absence hold for the method and conditions named. Some results given as binding are weak or reduced against the parent protein; the word gives no strength. Tags and fused reporters may be left off the sequences shown.
Target: T1, mouse CD137-Fc chimeric protein (mouse), P20334
T1 chain: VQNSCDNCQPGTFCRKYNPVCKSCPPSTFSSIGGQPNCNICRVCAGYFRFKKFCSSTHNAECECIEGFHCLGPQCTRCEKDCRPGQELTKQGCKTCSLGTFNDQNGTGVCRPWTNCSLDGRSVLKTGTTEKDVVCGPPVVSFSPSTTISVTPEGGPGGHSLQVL
Test: SPR, CD137-Fc captured, binder injected
Settings: remark: other sources report otherwise

binding: binds
B1: PRO963 (protein)
chain: DIQMTQSPSSLSASVGDRVTITCQASQSINDYLAWYQQKPGKAPKLLIYKASTLASGVPSRFSGSGSGTDFTLTISSLQPEDFATYYCQQGYIITDIDNVFGTGTKVTVLGGGGGSQVQLQESGPGLVKPSETLSLTCKVSGFSFSNSYWICWIRQPPGKGLEWIGCTFVGSSDSTYYANWAKGRVTISVDSSKNQFSLKLSSVTAADTAVYYCARHPSDAVYGYANNLWGQGTLVTVSSGGGGSGGGGSGGGGSGGGGSIQMTQSPSSLSASVGDRVTITCQASQSINNVLAWYQQKPGKAPKLLIYRASTLASGVPSRFSGSGSGTDFTLTISSLQPEDFATYYCQSSYGNYGDFGTGTKVTVLGGGGGSQVQLQESGPGLVKPSETLSLTCKVSGFSFSSGYDMCWIRQPPGKGLEWIGCVVAGSVDITYYASWAKGRVTISVDSSKNQFSLKLSSVTAADTAVYYCARKDAYSDAFNLWGQGTLVTVSSGGGGSGGGGSIQMTQSPSSLSASVGDRVTITCQSSESVYSNNQLSWYQQKPGQPPKLLIYDASDLASGVPSRFSGSGSGTDFTLTISSLQPEDFATYYCAGGFSSSSDTAFGGGTKLTVLGGGGGSGGGGSGGGGSGGGGSEVQLVESGGGLVQPGGSLRLSCAASGFSLSSNAMGWVRQAPGKGLEYIGIISVGGFTYYASWAKGRFTISRDNSKNTVYLQMNSLRAEDTATYFCARDRHGGDSSGAFYLWGQGTLVTVSS
